HELM strings list residues between dots; [ac] is acetyl, [am] amide, other brackets name non-standard units.
Assay: general procedure: Fmoc solid-phase peptide synthesis; Fmoc-ProO-chlorotritylresin, Fmoc-4Hyp2(tBu)O-chlorotritylresin, Fmoc-OicO-chlorotritylresin, Fmoc-4Mpl(Trt)O-chloro-tri
Settings: whole synthesis, Analytical HPLC (Acquity UPLC BEH C18)

Substance	final HPLC purity
Asp Cys Phe Trp Lys Tyr Cys Cha ^DPro^LPro	90%
Asp Cys Phe Trp Lys Tyr Cys Leu ^D4Hyp2^LPro	95%
Asp Cys Phe ^DTrp Orn Tyr Cys Val ^DPro^LPro	90%
Cha Glu Trp Leu Ala Trp Glu Cha ^DPro^LPro	80%
Cha Glu Trp Leu Ala Trp Glu Phe ^DPro^LPro	90%
Glu Glu Trp Leu Ala Trp Glu Phe ^DPro^LPro	95%
Met Glu Trp Leu Asp Trp Glu Phe ^DPro^LPro	80%
PEPTIDE1{D.C.F.W.K.Y.C.L.[dE].P}$PEPTIDE1,PEPTIDE1,1:R1-10:R2|PEPTIDE1,PEPTIDE1,2:R3-7:R3$$$V2.0	90%
PEPTIDE1{D.C.F.W.K.Y.C.L.[dS].P}$PEPTIDE1,PEPTIDE1,1:R1-10:R2|PEPTIDE1,PEPTIDE1,2:R3-7:R3$$$V2.0	95%
PEPTIDE1{D.C.F.W.K.Y.C.V.[dP].P}$PEPTIDE1,PEPTIDE1,1:R1-10:R2|PEPTIDE1,PEPTIDE1,2:R3-7:R3$$$V2.0	90%
PEPTIDE1{D.C.F.[dW].K.Y.C.V.[dP].P}$PEPTIDE1,PEPTIDE1,1:R1-10:R2|PEPTIDE1,PEPTIDE1,2:R3-7:R3$$$V2.0	85%
PEPTIDE1{D.C.Y.W.K.Y.C.L.[dP].P}$PEPTIDE1,PEPTIDE1,1:R1-10:R2|PEPTIDE1,PEPTIDE1,2:R3-7:R3$$$V2.0	90%
Phe Ala Trp(6Cl) Leu Asp Trp Glu Phe ^DPro^LPro	95%
Phe Glu Ala Leu Asp Trp Glu Phe ^DPro^LPro	95%
Phe Glu Trp Gly Ala Trp Glu Phe ^DPro^LPro	95%
Phe Glu Trp Leu Ala Trp Glu Glu ^DPro^LPro	95%
Phe Glu Trp Leu Ala Trp Glu Glu(cHx) ^DPro^LPro	90%
Phe Glu Trp Leu Ala Trp Glu Ile ^DPro^LPro	60%

Substance	final HPLC purity
Phe Glu Trp Leu Ala Trp Glu Phe ^DPro^L4Hyp2	90%
Phe Glu Trp Leu Ala Trp Glu Trp ^DPro^LOic	95%
Phe Glu Trp Leu Ala Trp Leu Phe ^DPro^LPro	95%
Phe Glu Trp Leu Ala Trp Tyr Phe ^DPro^LPro	95%
Phe Glu Trp Leu Asp Trp Glu Met ^DPro^LPro	80%
Phe Glu Trp Leu Asp Trp Glu Phe ^DPro^LPro	95%
Phe Glu Trp Leu Gly Trp Glu Phe ^DPro^LPro	95%
Phe Glu Trp Leu Tyr Trp Glu Phe ^DPro^LPro	92%
Phe Glu Trp Leu ^DAla Trp Glu Phe ^DPro^LPro	95%
Phe Glu Trp Tyr Ala Trp Glu Phe ^DPro^LPro	95%
Phe Glu Trp(6Cl) Cys Ala Trp Glu Phe ^DPro^LPro	50%
Phe Glu Trp(6Cl) Leu Ala OctG Glu Phe ^DPro^LPro	90%
Phe Glu Trp(6Cl) Leu Ala Trp Glu Phe ^DPro^LPro	95%
Phe Glu Trp(6Cl) Leu Asp Ala Glu Phe ^DPro^LPro	95%
Phe Glu Trp(6Cl) Leu Asp Trp Ala Phe ^DPro^LPro	95%
Phe Leu Trp Leu Ala Trp Glu Phe ^DPro^LPro	95%
Phe Thr Trp(6Cl) Leu Ala Trp Glu Phe ^DPro^L4Mp1	85%
